The nature of one data set: peptide synthesis. The note with it: HPLC (% b.a., (F)-HPLC).
Data set [1] is described as follows: Fmoc solid-phase peptide synthesis; 4-(Chloro(diphenyl)methyl)benzoyl aminomethyl polystyrene resin; DICI/HOBt. The note with it: whole synthesis, HPLC (% b.a., (F)-HPLC).

With “(H-Phe-[(2S,4R)-4-(Boc-NH—CH2—CH2—NH—CO—O)]-Pro-Phg-D-Trp-Lys(BOC)-OMe)”, the “crude HPLC purity” value in the data set “peptide synthesis” (late stage modification step) is given as 93.1%. With “FMOC-Tyr(Bzl)-Phe-[(2S,4R)-4-(BOC-NH—CH2—CH2—NH—CO—O)]-Pro-Phg-D-Trp-Lys(BOC)-OMe”, the “crude HPLC purity” value in “peptide synthesis” (coupling step) was 95.4%. Consider “H-Tyr(Bzl)-Phe-(2S,4R)-4-(Boc-NH—CH2—CH2—NH—CO—O)-Pro-Phg-D-Trp(Boc)Lys(Boc)-OH”, for which the “crude HPLC purity” value came out at 95.2% in data set [1] (scale 4.0 g peptide resin), 92.6% in data set [1] (scale 6.2 g peptide resin) and 91.6% in data set [1] (scale 24.5 g peptide resin). For “H-Tyr(Bzl)-Phe-(2S,4R)-4-(Boc-NH—CH2—CH2—NH—CO—O)-Pro-Phg-D-Trp-Lys(Boc)-OH”, in “peptide synthesis” (late stage modification step), the “final HPLC purity” value was 87.5%. Consider “H-[(2S,4R)-4-(Boc-NH—CH2—CH2—NH—CO—O)]-Pro-Phg-D-Trp-Lys(BOC)-OMe”, for which the “crude HPLC purity” value in the data set “peptide synthesis” (late stage modification step) was determined as 97.0%. In the case of “Z-Phe-[(2S,4R)-4-(Boc-N H—CH2—CH2—NH—CO—O)]-Pro-Phg-D-Trp-Lys(BOC)-OMe”, the “crude HPLC purity” value in the data set “peptide synthesis” (coupling step) is 97.2%.

In the case of “Z-[(2S,4R)-4-(Boc-NH—CH2—CH2—NH—CO—O)]-Pro-Phg-D-Trp-Lys(BOC)-OMe”, the “crude HPLC purity” value in “peptide synthesis” (coupling step) amounted to 91.0%.
